Read-outs that look alike come from different tables or passages of the source. Part of at least one peptide drawing is inferred or uncertain, most often the ends. Where a SMILES comes first, the peptide text is derived from it. [ ]: non-standard residue; d: D form.
Experiments:
C. albicans [1] = test: In vitro killing assay (Example 2); type: cell-based; settings: sodium phosphate buffer, 1.5 h, 37° C.
C. albicans strain DIS = type: in vivo, mice ICR strain; settings: for Log10 cfu/ml (Mean + S.D.), Initial infection: before treatment (baseline); for histopathological finding in tongue sections (C. albicans, PAS staining): end of treatment
Procedure: A previously described protocol was adopted (14). Mice were immunosuppressed with two subcutaneous injections of prednisolone at a dose of 100 mg/kg body weight 1 day prior to and 3 days after the infection with C. albicans. Tetracycline hydrochloride in drinking water at a concentration of 0.83 mg/ml was given to mice beginning 1 day before infection. Mice were anesthetized by intramuscular injection with 60 μl of 2 mg/ml chlorpromazine chloride, using a dose of 10 mg/kg body weight of mice. While under anesthesia, a small cotton ball soaked in 0.1 ml aliquot of C. albicans cell suspension (2.5×10^6 cells) was used to swab the entire oral cavity of the anesthetized mice.
Visual evaluation was done by carefully extending the tongue of randomly picked mice using blunt-end forceps, while the mice were under isoflurane sedation. Presence of thick, white curd-like patches indicated candidal infection. At day 3 post-infection, all animals were examined for evidence oral candidal infection by microbiological evaluation. The entire oral cavity of anesthetized mice was swabbed using a sterile calcium alginate disposable swab (Fisher Scientific), dampened with sterile PBS. Cells were then released from the swab into 1 ml PBS. Serial 10-fold dilutions were plated on SDA plates supplemented with streptomycin (30 μg/ml). Plates were incubated for 24 h at 37° C. and yeast cell count expressed as log10 of cfu/ml.
Tongues from sacrificed animals were used for histological studies. They were fixed in 10% formalin and embedded in paraffin. Serial five-μm sections were cut from the paraffin block and stained with periodic acid-Schiff (PAS) reagent for detection of C. albicans.
Mice were randomly divided into various treatment groups with 8 mice per group. Antifungal agents were employed on an equimolar basis, and included amphotericin B (1.75%), clotrimazole (0.66%), MUC7 12-mer (RKSYKCLHKRCR—SEQ ID NO:1) (L; 3%), MUC7 12-mer (D; 3%), MUC7 12-mer (D; 3%) containing Na2EDTA (1 mM), MUC7 12-mer (L; 3%) containing protease inhibitor cocktail (PIC) (1%), and Hsn5 12-mer (AKRHHGYKRKFH—SEQ ID NO:2) (3%). They were all emulsified in Pluronic F127, (20% lipoil), a polymer of polyoxyethylene and polyoxypropylene (non-ionic surfactant). Animals were anesthetized using isoflurane; while sedated, about 30 to 40 μl of the antifungal emulsion was applied on the tongue and spread throughout oral cavity. The treated mice were under sedation for additional 5 min under isoflurane. Animals were not given access to food and water for 1 h following the application.
Fungal burden was re-evaluated quantitatively after 3 and 6 days of treatment, using the same technique as the one used for initial evaluation. Randomly picked mice from each group was subjected to histopathological evaluation, after 6 days of treatment. Blood from randomly sacrificed mice from each treatment group was analyzed for any changes in the serum liver (AST, ALT, ALP etc.) and kidney enzymes (BUN, glucose, creatinine etc) levels.
Statistical analysis was performed using a significance level set at 0.05 (α) and a significant group size (n=8). Initial infection and antifungal treatment efficacy were determined using analysis of variance (ANOVA), expressed as log10 cfu, and Scheffe's multiple comparison test was used to determine the differences between various treatment groups.

S. mutans GS-5 biofilm = type: cell-based, Streptococcus mutans
Procedure: FIG. 11. Effect of peptides on the biofilm formation of S. mutans. The bacterial cells (5×10^5 cfu ml^−1) were inoculated in 96-well microtiter plate containing 25% BHIS medium with different concentration of each agent. Culture without agent was used as no treatment control. After incubation at 37° C. for 24 h, absorbance at 595 nm was recorded to assess the cell growth. Biofilm assay was performed by discarding the supernatants, washing with PBS, fixing with methanol, and staining with CV. The absorbance at 570 nm was recorded to assess the amount of biofilm. The activity was expressed as % of control. Data represents mean and SD of two independent tests with duplicates for each. Empty bar: growth, solid bar: biofilm.
The effect of the peptides on S. mutans in biofilm formation was examined by the microdilution method. This method is similar to the MIC assay for planktonic cells. Two-fold serial dilutions of each peptide were prepared in wells of polystyrene microtiter plates (Microtest tissue culture plate, 96 well, Falcon, Becton Dickinson and Company, N.J.) containing 25% BHI medium supplemented with 1% sucrose (BHIS) at a volume of 200 μl per well. The final concentration of the peptide ranged from 0.78 to 100 μM for each peptide. Chlorhexidine (CHX, 0.078 to 10 μg/mL) was used as the positive control, the medium without drug as the non-treated control, and the medium alone as the blank control. The cells suspension of S. mutans GS-5 was prepared as describe in MIC assay and 20 μl aliquot (final concentration of cells 5×10^5 CFU/mL) was inoculated to the wells of polystyrene microtiter plates. […] Biofilm formation was quantified by the addition of 200 μl of 95% ethanol to each crystal violet-stained well. The plate was rocked at room temperature for 30 min and the absorbance at 595 nm (A595 nm) was determined with a microplate reader (BioRad Model 3550 Microplate Reader). Percentage of inhibition was calculated with the equation: (1−A595 nm of the test/A595nm of non-treated control)×100.

[2] = tested on: S. mutans GS-5 1-day biofilm; type: cell-based, Streptococcus mutans; settings: for eradication of 1-day developed biofilm: at or more than MBEC50
Procedure: FIG. 12. Effect of peptides on 1-day biofilm of S. mutans. One-day mature biofilm was prepared as described above. BHI medium supplemented with 1% sucrose (BHIS) with peptides, prepared in another microtiter plate, was then transferred to the biofilm plate. After further incubation at 37° C. for 24 h, the biofilm was fixed, stained, and quantified as describe above. Data represents mean and SD of two independent tests performed in duplicated. Empty bar: growth, solid bar: biofilm.
To examine the effects of the peptides on 1-day mature biofilm, S. mutans GS-5 was inoculated into the wells of another polystyrene microtiter plate containing BHIS at a volume of 200 μl per well. After incubation at 37° C. for 24 h, the culture supernatants from each well were decanted and planktonic cells were removed by washing with PBS. BHIS containing 0.78 to 100 μM peptides, prepared in another microtiter plate, was then transferred to the 1-day biofilm plate, and further incubated at 37° C. for one day. The biofilm was fixed, stained, and quantified as describe above.

C. albicans [3] = test: Time kill experiments in saliva; type: cell-based; settings: 50 μM
[4] = Experimental study I, day 3 post-infection
[5] = Experimental study I, topical oral application
[6] = clarified saliva containing PIC

| Compound | ED90 or concentration required to kill 90% cells (C. albicans [1]) | Log10 cfu/ml (Mean + S.D.), Initial infection (C. albicans strain DIS; [4]) | Log10 cfu/ml (Mean + S.D.), 3-days treatment (C. albicans strain DIS; [5]) | Log10 cfu/ml (Mean + S.D.), 6-days treatment (C. albicans strain DIS; [5]) | histopathological finding in tongue sections (C. albicans, PAS staining) (C. albicans strain DIS) | MBIC50 (S. mutans GS-5 biofilm) | MBEC50 [2] | eradication of 1-day developed biofilm [2] | incubation time to reach more than 80% killing of C. albicans (C. albicans [3]; [6]) | Log10 cfu/ml (Mean + S.D.), 3-days treatment (C. albicans strain DIS; Experimental study II) | Log10 cfu/ml (Mean + S.D.), Initial infection (C. albicans strain DIS; Experimental study II) | incubation time to reach more than 80% killing of C. albicans (C. albicans [3]; unclarified saliva containing PIC) |
| --- | --- | --- | --- | --- | --- | --- | --- | --- | --- | --- | --- | --- |
| CC(C)C[C@@H](NC(=O)[C@@H](CS)NC(=O)[C@@H](CCCCN)NC(=O)[C@@H](Cc1ccc(O)cc1)NC(=O)[C@@H](CO)NC(=O)[C@@H](CCCCN)NC(=O)[C@H](N)CCCNC(=N)N)C(=O)N[C@H](Cc1c[nH]cn1)C(=O)N[C@H](CCCCN)C(=O)N[C@H](CCCNC(=N)N)C(=O)N[C@H](CS)C(=O)N[C@H](CCCNC(=N)N)C(=O)O [MUC7 12-mer-D] (H-[dR][dK][dS][dY][dK][dC][dL][dH][dK][dR][dC][dR]-OH; N-terminus and C-terminus assumed) | 1.56 µM | 4.20 ± 0.30 Log10 cfu/ml | 2.78 ± 0.43 Log10 cfu/ml | 1.04 ± 1.14 Log10 cfu/ml | presence of fewer cells, compared to the placebo | 9.5 µg/mL | 38 µg/mL | reduction of biofilm was observed | 20 min |  |  |  |
| CC(C)C[C@H](NC(=O)[C@H](CS)NC(=O)[C@H](CCCCN)NC(=O)[C@H](Cc1ccc(O)cc1)NC(=O)[C@H](CO)NC(=O)[C@H](CCCCN)NC(=O)[C@@H](N)CCCNC(=N)N)C(=O)N[C@@H](Cc1c[nH]cn1)C(=O)N[C@@H](CCCCN)C(=O)N[C@@H](CCCNC(=N)N)C(=O)N[C@@H](CS)C(=O)N[C@@H](CCCNC(=N)N)C(=O)O [MUC7 12-mer-L] (H-RKSYKCLHKRCR-OH; N-terminus and C-terminus assumed) | 4.79 µM | 4.09 ± 0.49 Log10 cfu/ml | 2.26 ± 1.10 Log10 cfu/ml | 0.67 ± 0.93 Log10 cfu/ml | healthy tissue and absence of visible microorganisms | 19.5 µg/mL | 78 µg/mL | reduction of biofilm was observed | 20 min | 2.28 ± 1.11 Log10 cfu/ml | 4.26 ± 0.43 Log10 cfu/ml | 90 min |
